{"sequences": {"note": "Sequences of proteins named here, by UniProt entry; tags and fusion partners are left off. A change or cut given only in a name is not applied to a line headed by its entry.", "UniProt P18054": "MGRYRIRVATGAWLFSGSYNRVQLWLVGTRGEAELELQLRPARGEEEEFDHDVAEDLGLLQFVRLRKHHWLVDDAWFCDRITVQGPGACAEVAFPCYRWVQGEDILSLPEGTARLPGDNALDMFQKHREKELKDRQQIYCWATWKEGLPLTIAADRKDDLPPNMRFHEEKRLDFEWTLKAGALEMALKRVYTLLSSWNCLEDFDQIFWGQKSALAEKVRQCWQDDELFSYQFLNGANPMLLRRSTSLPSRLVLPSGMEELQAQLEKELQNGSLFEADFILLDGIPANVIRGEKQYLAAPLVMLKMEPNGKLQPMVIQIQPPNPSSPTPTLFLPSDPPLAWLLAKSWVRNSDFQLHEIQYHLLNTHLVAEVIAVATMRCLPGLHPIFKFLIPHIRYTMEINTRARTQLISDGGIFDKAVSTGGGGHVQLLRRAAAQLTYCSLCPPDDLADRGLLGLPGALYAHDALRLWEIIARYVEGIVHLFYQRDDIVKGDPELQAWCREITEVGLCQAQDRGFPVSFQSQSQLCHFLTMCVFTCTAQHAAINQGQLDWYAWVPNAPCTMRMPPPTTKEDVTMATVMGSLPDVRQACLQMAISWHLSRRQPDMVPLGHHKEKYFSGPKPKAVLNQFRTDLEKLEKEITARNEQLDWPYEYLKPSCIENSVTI"}, "source": "PubChem BioAssay AID1671190", "about": "(National Center for Advancing Translational Sciences (NCATS), 2021)", "note": "“And” between values parts separate entries of the source, which are not always exact repeats. Equal values may be shown once. The campaign covered roughly 580,000 compounds. About 6,100 (1.1%) were called active. This list was built around the results that the source calls inconclusive (neither active nor inactive); the mix of calls is not that of the screen. Calls follow the shape of the dose curve; as a rule, active = well fitted inhibition curve with a large enough effect; inconclusive = small, poorly fitted or top-dose-only effect, or another doubt; inactive = no such curve, though single readings can be large or run the other way. Potencies beside an inconclusive call are fits to weak or partial responses and may not hold up. Potency is read from the fitted curve at half-maximal effect."}
{"molecular_target": "Polyunsaturated fatty acid lipoxygenase ALOX12 (Homo sapiens) (UniProt P18054)", "assay": "Primary qHTS assay for inhibitors of human arachidonate 12S-lipoxygenase (ALOX12): Round 2", "settings": "purified 12hLO, xylenol orange hydroperoxide absorbance; series mostly up to 108 µM", "in_short": "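Hydroperoxide product was detected by ferrous iron/xylenol orange as the 573 to 405 nm absorbance ratio. Arachidonic acid at 40 uM (final) was turned over for 30 min at room temperature by 150 nM human 12hLO, pH 7.0 Hepes buffer, after 15 min compound preincubation.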"}
{"smiles": "O=C(O)c1ccc(NCc2cccc(Br)c2)cc1", "Potency": "inactive"}
{"smiles": "Cc1ccc(C(C)C)c(OCCCn2ccnc2C)c1", "Potency": "inconclusive: 1.12 µM [inhibitor, full curve, poor fit]"}
{"smiles": "Cc1cc(OC(C)C(=O)NCC2CCCO2)cc(C)c1Cl", "note": "(configuration not stated)", "Potency": "inconclusive: 8.91 µM [inhibitor, full curve, poor fit]"}
{"smiles": "O=C(Cn1cnc2c(nnn2Cc2ccc(Cl)cc2)c1=O)NCc1ccco1", "Potency": "inconclusive: 70.8 µM [inhibitor, partial curve, poor fit]"}
{"smiles": "CC(Sc1nnc(COc2ccc(Cl)cc2)n1Cc1ccco1)C(=O)N1CCNC1=O", "note": "(configuration not stated)", "Potency": "inconclusive: 79.4 µM [inhibitor, partial curve, poor fit]"}
{"smiles": "COc1cc(CC(=O)NC(c2ccccc2)c2ccccc2)cc(OC)c1OC", "Potency": "inactive"}
{"smiles": "Cc1ccc(-c2nc3cccc(C)n3c2Nc2ccc3c(c2)OCO3)o1", "Potency": "inconclusive: 56.2 µM [inhibitor, partial curve, poor fit]"}
{"smiles": "O=c1[nH]cnc2c1ncn2[C@@H]1O[C@H](COS(=O)(=O)O)[C@@H](O)[C@H]1O", "Potency": "inconclusive: 282 µM [inhibitor, partial curve, poor fit]"}
{"smiles": "Clc1ccc(-c2c[n+](Cc3ccc(Br)cc3)c3n2CCCCC3)cc1", "Potency": "inconclusive: 112 µM [inhibitor, single point]"}
{"smiles": "O=C(c1cccc(Cl)c1)c1nn(-c2ccccc2)c(=O)cc1C(F)(F)F", "Potency": "inconclusive: 89.1 µM [inhibitor, partial curve, poor fit]"}
{"smiles": "CCCNc1c(NC(=O)Nc2ccc(C)cc2)c(=O)oc2ccccc12", "Potency": "inconclusive: 20 µM [inhibitor, partial curve, poor fit]"}
{"smiles": "NS(=O)(=O)c1ccc2nc(-c3ccccc3)c(-c3ccccc3)nc2c1", "Potency": "inconclusive: 63.1 µM [inhibitor, partial curve, poor fit]"}
{"smiles": "CCC(=O)Oc1c(Sc2ccc(C)cc2)c(C)nn1-c1ccccc1", "Potency": "inconclusive: 50.1 µM [inhibitor, partial curve, poor fit]"}
{"smiles": "CC(CCc1ccccc1)NC(=S)NC1CCCCC1", "note": "(configuration not stated)", "Potency": "inconclusive: 44.7 µM [inhibitor, partial curve, poor fit]"}
{"smiles": "CCOc1ccc(NC(=O)c2ccc(NC(=O)c3cn4c5c(c(N6CCN(C)CC6)c(F)cc5c3=O)OCC4C)cc2)cc1", "note": "(configuration not stated)", "Potency": "inconclusive: 22.4 µM [inhibitor, partial curve, poor fit]"}
{"smiles": "COc1ccccc1N=c1oc2cc(O)ccc2cc1C(N)=O", "Potency": "inactive"}
{"smiles": "COC(=O)CCNc1ccccc1", "Potency": "inconclusive: 100 µM [inhibitor, single point]"}
{"smiles": "COc1cc(/C=N/NC(=S)NC(C)C)ccc1OCC(=O)Nc1c(C)cc(C)cc1C", "Potency": "inactive"}
{"smiles": "O=c1c2cc([N+](=O)[O-])ccc2sn1-c1ccccc1", "Potency": "active: 0.251 µM"}
{"smiles": "CS(=O)(=O)NNC(=O)C1Cc2c(ccc3ccccc23)O1", "note": "(configuration not stated)", "Potency": "inactive"}
{"smiles": "Oc1ccccc1CN1C[C@H](O)C[C@H]1c1nc(-c2ccccc2)no1", "Potency": "inconclusive: 28.2 µM [inhibitor, full curve, poor fit]"}
{"smiles": "CC(=O)c1cccc(NC(=O)COc2ccccc2)c1", "Potency": "inactive"}
{"smiles": "Cc1ccc(CSC2=Nc3ccccc3C3=NC(=O)CN23)cc1", "Potency": "inactive"}
{"smiles": "CCOC(=O)C1CCCCN1Cc1cccc(OC)c1OC", "note": "(configuration not stated)", "Potency": "inconclusive: 0.224 µM [inhibitor, full curve, poor fit]"}
{"smiles": "O=C(N/N=C/c1ccc(-c2ccccc2[N+](=O)[O-])o1)c1cccnc1", "Potency": "inactive"}
{"smiles": "Cc1c(C)n2c(SCC(=O)NCc3ccc4c(c3)OCO4)nnc2[nH]c1=O", "Potency": "inconclusive: 1.26 µM [inhibitor, full curve, poor fit]"}
{"smiles": "COC(=O)CN(Cc1cccs1)C1CC1", "Potency": "inactive"}
{"smiles": "CN(C)C(=O)CN1CCN(C(C(=O)O)c2c[nH]c3ccc(OCC#N)cc23)CC1", "note": "(configuration not stated)", "Potency": "inconclusive: 28.2 µM [inhibitor, partial curve, poor fit]"}
{"smiles": "N#C/C(=C\\c1ccc(-c2ccc(C(=O)O)cc2)o1)C(=O)Nc1ccc(F)cc1", "Potency": "inconclusive: 8.91 µM [inhibitor, full curve, poor fit]"}
{"smiles": "Cc1ccn2c(=O)nc(SCC(=O)Nc3cccc4ccccc34)nc2c1", "Potency": "inactive"}
{"smiles": "CC(C)(C)c1cc(/C=C(\\C#N)C(N)=S)cc(C(C)(C)C)c1O", "Potency": "inconclusive: 35.5 µM [inhibitor, partial curve, poor fit] and inconclusive: 2 µM [inhibitor, full curve, poor fit]"}
{"smiles": "CC(C)C1=C/C(=C/c2ccccc2)C(C)/C(=C/c2ccccc2)C1=O", "note": "(configuration not stated)", "Potency": "inconclusive: 50.1 µM [inhibitor, partial curve, poor fit]"}
{"smiles": "CC1=NS(=O)(=O)N(Cc2ccccc2)C=C1C(=O)OCc1noc(-c2ccc(C)c(C)c2)n1", "Potency": "inactive"}
{"smiles": "CCCCSc1nc2c(cc1C#N)CCC2", "Potency": "inconclusive: 31.6 µM [inhibitor, partial curve, poor fit]"}
{"smiles": "Cc1ccc2c(=O)c(S(=O)(=O)c3ccccc3)cn(CC(=O)Nc3ccc4c(c3)OCCO4)c2n1", "Potency": "inconclusive: 100 µM [inhibitor, partial curve, poor fit]"}
{"smiles": "COc1cc(/C=C2\\CCCc3c2nc2ccccc2c3C(=O)O)cc([N+](=O)[O-])c1O", "Potency": "inconclusive: 44.7 µM [inhibitor, partial curve, poor fit]"}
{"smiles": "COc1ccccc1C(=O)Nc1nc2ccc(S(C)(=O)=O)cc2s1", "Potency": "inconclusive: 100 µM [inhibitor, partial curve, poor fit]"}
{"smiles": "CCCCNC(=S)N/N=C1/CC(C)CC(C)(C)C1", "note": "(configuration not stated)", "Potency": "inconclusive: 50.1 µM [inhibitor, partial curve, poor fit]"}
{"smiles": "Cc1ccc(S(=O)(=O)Cn2nnnc2CN2CCN(C(=O)c3ccco3)CC2)cc1", "Potency": "inactive"}
{"smiles": "O=C(O)CC(c1cccnc1)c1c[nH]c2ccccc12", "note": "(configuration not stated)", "Potency": "inconclusive: 0.562 µM [inhibitor, full curve, poor fit]"}
{"smiles": "CN(C)Cc1cc(C(F)(F)F)ccc1C(O)(c1ccccc1)c1ccccc1", "Potency": "inactive"}
{"smiles": "CC(C)=CCOc1ccc2ccc(=O)oc2c1", "Potency": "inactive"}
